Measured data: PubChem BioAssay AID493246 (Drosophila RNAi Screening Center, 2011)

- Screen: 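Genes fly cells need to grow and stay alive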 (primary screen)
- Cell system: Drosophila Kc and S2R+ cells
- Knock-down reagent: long dsRNA against Drosophila genes
- Read-out: 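Cell number per well after knock-down, printed as raw plate values; calls were based on per-plate z-scores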
- Reading the numbers: Kc cell number and S2R+ cell number: higher = more cells remaining
- Call rule: 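Active when the per-plate z-score of cell number is 3 or more in the direction of fewer cells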
The screen tested about 21,000 reagents; this is an unselected part of those that have a named target and a result. Over the whole deposit, 429 (2%) are marked active. 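Values are raw and not normalised between plates; calls rest on per-plate z-scores that were not deposited.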 Entries without a mark were called inactive. The numbers tell different reagents against one gene apart. The record does not give: the amount of reagent, the time to read-out.

no.	gene	dsRNA no.	Kc cell number, rep 1	Kc cell number, rep 2	S2R+ cell number, rep 1	S2R+ cell number, rep 2
1	CG14969 (GeneID 38415)	1	1.45e6	1.61e6	1.17e6	1.00e6
2	CG15478 (GeneID 31679)	1	1.72e6	1.66e6	1.09e6	1.25e6
3	Rpn8 (GeneID 37894)	1	8.97e5 (active)	9.70e5	6.57e5	8.11e5
4	CG18262 (GeneID 31745)	1	1.72e6	1.72e6	1.09e6	1.20e6
5	dy (GeneID 32130)	1	1.68e6	1.88e6	1.12e6	1.27e6
6	Six4 (GeneID 40297)	1	1.42e6	1.78e6	1.21e6	1.29e6
7	CG9822 (GeneID 37440)	1	1.72e6	1.79e6	1.21e6	2.34e5
8	E(spl)m6-BFM (GeneID 43159)	1	1.43e6	1.49e6	1.03e6	1.11e6
9	CG13365 (GeneID 31005)	1	1.53e6	1.54e6	9.95e5	1.12e6
10	DCTN1-p150 (GeneID 39536)	1	1.57e6	1.68e6	1.22e6	1.31e6
11	CG7848 (GeneID 36839)	1	1.65e6	1.73e6	1.16e6	1.28e6
12	mdu (GeneID 32201)	1	1.34e6	1.18e6	7.87e5	8.91e5
13	lsn (GeneID 42572)	1	1.35e6	1.32e6	1.03e6	1.09e6
14	CG16743 (GeneID 34517)	1	1.68e6	1.64e6	1.14e6	1.21e6
15	Dok (GeneID 31667)	1	1.68e6	1.62e6	1.00e6	1.10e6
16	CG7330 (GeneID 40007)	1	1.41e6	1.68e6	1.41e6	1.51e6
17	CG7330 (GeneID 40007)	2	1.66e6	1.93e6	1.38e6	1.52e6
18	CG31431 (GeneID 326138)	1	1.27e6	1.29e6	1.15e6	1.22e6
19	CG34457 (GeneID 5740661)	1	1.54e6	1.56e6	1.23e6	1.38e6
20	fs(1)h (GeneID 31722)	1	1.51e6	1.59e6	1.10e6	1.20e6
21	CG17560 (GeneID 42022)	1	1.50e6	1.45e6	1.07e6	1.16e6
22	Dus3 (GeneID 35264)	1	1.50e6	1.70e6	1.34e6	3.98e5
23	Pex11c (GeneID 42751)	1	1.41e6	1.59e6	1.03e6	1.18e6
24	mex1 (GeneID 39677)	1	1.65e6	1.69e6	1.21e6	1.31e6
25	Gyf (GeneID 43842)	1	5.03e5		8.18e5	
26	Cyp28c1 (GeneID 32138)	1	1.47e6	1.45e6	1.03e6	1.10e6
27	lz (GeneID 31883)	1	1.42e6	1.64e6	1.07e6	1.16e6
28	CG12971 (GeneID 40365)	1	1.32e6	1.46e6	1.21e6	1.38e6
29	Cul4 (GeneID 35780)	1	1.29e6	1.36e6	6.59e5	7.91e5
30	Syx18 (GeneID 42933)	1	1.63e6	1.67e6	1.05e6	1.14e6
31	Cpr78Cc (GeneID 40355)	1	1.52e6	1.58e6	1.24e6	1.42e6
32	Or13a (GeneID 32562)	1	1.54e6	1.58e6	1.11e6	1.24e6
33	CG4660 (GeneID 31542)	1	1.53e6	1.52e6	1.10e6	1.20e6

Continued; the last 5 above are carried over.
no.	gene	dsRNA no.	Kc cell number, rep 1	Kc cell number, rep 2	S2R+ cell number, rep 1	S2R+ cell number, rep 2
29	Cul4 (GeneID 35780)	1	1.29e6	1.36e6	6.59e5	7.91e5
30	Syx18 (GeneID 42933)	1	1.63e6	1.67e6	1.05e6	1.14e6
31	Cpr78Cc (GeneID 40355)	1	1.52e6	1.58e6	1.24e6	1.42e6
32	Or13a (GeneID 32562)	1	1.54e6	1.58e6	1.11e6	1.24e6
33	CG4660 (GeneID 31542)	1	1.53e6	1.52e6	1.10e6	1.20e6
34	Lcp2 (GeneID 35818)	1	1.62e6	1.72e6	1.27e6	1.41e6
35	Ravus (GeneID 41626)	1	1.40e6	1.38e6	1.07e6	1.20e6
36	CG12698 (GeneID 32570)	1	1.48e6	1.52e6	1.12e6	1.23e6
37	Plap (GeneID 43978)	1	1.26e6	1.28e6	9.28e5	9.84e5
38	CG8435 (GeneID 36789)	1	1.22e6	1.37e6	1.04e6	1.05e6
39	CG6048 (GeneID 31528)	1	1.47e6	1.46e6	1.04e6	1.15e6
40	Ire1 (GeneID 42358)	1	1.30e6	1.32e6	1.17e6	1.17e6
41	CG7720 (GeneID 42257)	1	1.65e6	1.67e6	1.21e6	1.29e6
42	CG9269 (GeneID 41663)	1	1.32e6	1.42e6	1.25e6	1.33e6
43	Polr2K (GeneID 5740790)	1	1.90e6	1.95e6	1.05e6	1.20e6
44	gkt (GeneID 33530)	1	1.55e6	1.51e6	1.15e6	1.27e6
45	Sbds (GeneID 38749)	1	1.30e6	1.43e6	1.37e6	1.16e6
46	Ns1 (GeneID 42060)	1	1.25e6	1.25e6	8.34e5	9.32e5
47	Proc (GeneID 250710)	1	3.48e5 (active)	4.95e5	5.46e5	6.18e5
48	CG5357 (retired record) (GeneID 37712)	1	1.43e6	1.54e6	1.27e6	1.39e6
49	CG3529 (GeneID 39093)	1	1.36e6	1.46e6	1.15e6	1.12e6
50	dlt (GeneID 46719)	1	1.76e6	1.66e6	1.17e6	1.47e6
51	CG33333 (GeneID 2768672)	1	1.43e6	1.39e6	1.00e6	1.09e6
52	PolZ2 (GeneID 40677)	1	1.23e6	1.38e6	1.22e6	1.26e6
53	CG10730 (GeneID 35291)	1	1.67e6	1.83e6	1.42e6	3.50e5
54	Spp (GeneID 33227)	1	1.41e6	1.42e6	6.22e5	6.69e5
55	SdhCL (GeneID 41324)	1	1.74e6	1.80e6	1.41e6	1.49e6
56	CG15554 (GeneID 43680)	1	1.57e6	1.59e6	1.07e6	1.22e6
57	CG4230 (GeneID 33743)	1	1.23e6	1.29e6	5.73e5	5.89e5
58	Prp3 (GeneID 40172)	1	1.47e6	1.64e6	9.97e5	1.10e6
59	Os-C (GeneID 40942)	1	1.40e6	1.39e6	1.29e6	1.38e6
